{"source": "the supplement of paper PMC8728848", "binders": {"B1": {"name": "SJCP1084 (Schistosoma japonicum) (protein)", "chain": "MRIINLVIISTALLLINLLQTKSQANGEDTKNGTPDDPGLTKSTELKVEVQALLKDKKTNMRVKWNENLLDNTKPEYHNLRDEACELLLQIVRSVVPLSQDDGECKDVTFTKYVVGTKDGAVNVKLTITFKDSVAINQKPMDLKLKLENDFKNLQSESTLKATKPTFTVKVEKRLIPISKPQTTPPTTAKNDASKENVGDIGGEDSTVPTAAPATAASANEEKDEGDKDNKDSQHPNVLTSNVNDRNLIIALVALMILAIGVALTAAVKQR"}}, "experiment_in_all_cases": "glycan array binding signal (z-score within array); higher = stronger binding", "conditions_in_all_cases": "glycan notation: IUPAC condensed, linker removed", "key": {"[1]": {"target": "Fuc(a1-2)Gal", "in_short": "(§1)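 Glycan array data were curated from 3228 arrays in the Consortium for Functional Glycomics database and kept only where the protein sequence was available. Glycan names were converted to IUPAC-condensed notation, and columns mapping to the same glycan were averaged. The binding signal is a within-array Z-score, averaged across arrays of the same protein sequence at different concentrations or buffers and across linkers. Negative Z-scores can be read as non-binding.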"}, "[2]": {"target": "Fuc(a1-2)Gal(b1-3)GalNAc", "in_short": "as §1"}, "[3]": {"target": "Fuc(a1-2)Gal(b1-3)GalNAc(a1-3)[Fuc(a1-2)]Gal(b1-4)Glc", "in_short": "as §1"}, "[4]": {"target": "Fuc(a1-2)Gal(b1-3)GalNAc(a1-3)[Fuc(a1-2)]Gal(b1-4)GlcNAc", "in_short": "as §1"}, "[5]": {"target": "Fuc(a1-2)Gal(b1-3)GalNAc(b1-3)Gal", "in_short": "as §1"}, "[6]": {"target": "Fuc(a1-2)Gal(b1-3)GalNAc(b1-3)Gal(a1-4)Gal(b1-4)Glc", "in_short": "as §1"}, "[7]": {"target": "Fuc(a1-2)Gal(b1-3)GalNAc(b1-4)[Neu5Ac(a2-3)]Gal(b1-4)Glc", "in_short": "as §1"}, "[8]": {"target": "Fuc(a1-2)Gal(b1-3)GlcNAc", "in_short": "as §1"}, "[9]": {"target": "Fuc(a1-2)Gal(b1-3)GlcNAc(b1-2)Man(a1-3)[Fuc(a1-2)Gal(b1-3)GlcNAc(b1-2)Man(a1-6)]Man(b1-4)GlcNAc(b1-4)GlcNAc", "in_short": "as §1"}, "[10]": {"target": "Fuc(a1-2)Gal(b1-3)GlcNAc(b1-2)Man(a1-3)[Fuc(a1-2)Gal(b1-3)GlcNAc(b1-2)Man(a1-6)]Man(b1-4)GlcNAc(b1-4)[Fuc(a1-6)]GlcNAc", "in_short": "as §1"}, "[11]": {"target": "Fuc(a1-2)Gal(b1-3)GlcNAc(b1-3)Gal(b1-4)Glc", "in_short": "as §1"}, "[12]": {"target": "Fuc(a1-2)Gal(b1-3)GlcNAc(b1-3)GalNAc", "in_short": "as §1"}, "[13]": {"target": "Fuc(a1-2)Gal(b1-3)GlcNAc(b1-3)[Fuc(a1-2)Gal(b1-3)GlcNAc(b1-6)]GalNAc", "in_short": "as §1"}, "[14]": {"target": "Fuc(a1-2)Gal(b1-3)GlcNAc(b1-3)[Gal(b1-4)GlcNAc(b1-6)]Gal(b1-4)Glc", "in_short": "as §1"}, "[15]": {"target": "Fuc(a1-2)Gal(b1-3)GlcNAc(b1-3)[Neu5Ac(a2-6)Gal(b1-4)GlcNAc(b1-6)]Gal(b1-4)Glc", "in_short": "as §1"}, "[16]": {"target": "Fuc(a1-2)Gal(b1-3)GlcNAc6S", "in_short": "as §1"}, "[17]": {"target": "Fuc(a1-2)Gal(b1-3)[Fuc(a1-4)]GlcNAc", "in_short": "as §1"}, "[18]": {"target": "Fuc(a1-2)Gal(b1-3)[Fuc(a1-4)]GlcNAc(b1-2)Man(a1-3)[Fuc(a1-2)Gal(b1-3)[Fuc(a1-4)]GlcNAc(b1-2)Man(a1-3)]Man(b1-4)GlcNAc(b1-4)GlcNAc", "in_short": "as §1"}, "[19]": {"target": "Fuc(a1-2)Gal(b1-3)[Fuc(a1-4)]GlcNAc(b1-2)Man(a1-3)[Fuc(a1-2)Gal(b1-3)[Fuc(a1-4)]GlcNAc(b1-2)Man(a1-6)]Man(b1-4)GlcNAc(b1-4)[Fuc(a1-6)]GlcNAc(b1-4)[Fuc(a1-6)]GlcNAc", "in_short": "as §1"}, "[20]": {"target": "Fuc(a1-2)Gal(b1-3)[Fuc(a1-4)]GlcNAc(b1-3)[Fuc(a1-3)[Gal(b1-4)]GlcNAc(b1-6)]Gal(b1-4)Glc", "in_short": "as §1"}, "[21]": {"target": "Fuc(a1-2)Gal(b1-3)[Fuc(a1-4)]GlcNAc(b1-3)[Gal(b1-4)GlcNAc(b1-6)]Gal(b1-4)Glc", "in_short": "as §1"}, "[22]": {"target": "Fuc(a1-2)Gal(b1-4)Glc", "in_short": "as §1"}, "[23]": {"target": "Fuc(a1-2)Gal(b1-4)Glc6S", "in_short": "as §1"}, "[24]": {"target": "Fuc(a1-2)Gal(b1-4)GlcNAc", "in_short": "as §1"}, "[25]": {"target": "Fuc(a1-2)Gal(b1-4)GlcNAc(b1-2)Man", "in_short": "as §1"}, "[26]": {"target": "Fuc(a1-2)Gal(b1-4)GlcNAc(b1-2)Man(a1-3)[Fuc(a1-2)Gal(b1-4)GlcNAc(b1-2)Man(a1-6)]Man(b1-4)GlcNAc(b1-4)GlcNAc", "in_short": "as §1"}, "[27]": {"target": "Fuc(a1-2)Gal(b1-4)GlcNAc(b1-2)Man(a1-3)[Fuc(a1-2)Gal(b1-4)GlcNAc(b1-2)Man(a1-6)]Man(b1-4)GlcNAc(b1-4)[Fuc(a1-6)]GlcNAc", "in_short": "as §1"}, "[28]": {"target": "Fuc(a1-2)Gal(b1-4)GlcNAc(b1-2)[Fuc(a1-2)Gal(b1-4)GlcNAc(b1-4)]Man(a1-3)[Fuc(a1-2)Gal(b1-4)GlcNAc(b1-2)Man(a1-6)]Man(b1-4)GlcNAc(b1-4)GlcNAc", "in_short": "as §1"}, "[29]": {"target": "Fuc(a1-2)Gal(b1-4)GlcNAc(b1-3)Gal(b1-4)GlcNAc", "in_short": "as §1"}, "[30]": {"target": "Fuc(a1-2)Gal(b1-4)GlcNAc(b1-3)Gal(b1-4)GlcNAc(b1-2)Man(a1-3)[Fuc(a1-2)Gal(b1-4)GlcNAc(b1-3)Gal(b1-4)GlcNAc(b1-2)Man(a1-6)]Man(b1-4)GlcNAc(b1-4)GlcNAc", "in_short": "as §1"}}, "note": "This is one part of the list."}
{"binder": "B1", "values": [{"measurement": "glycan array binding signal (z-score)", "setting": "[1]", "result": 0.098}, {"measurement": "glycan array binding signal (z-score)", "setting": "[2]", "result": 0.661}, {"measurement": "glycan array binding signal (z-score)", "setting": "[3]", "result": -0.225}, {"measurement": "glycan array binding signal (z-score)", "setting": "[4]", "result": -1.08}, {"measurement": "glycan array binding signal (z-score)", "setting": "[5]", "result": 0.716}, {"measurement": "glycan array binding signal (z-score)", "setting": "[6]", "result": 0.9}, {"measurement": "glycan array binding signal (z-score)", "setting": "[7]", "result": 0.189}, {"measurement": "glycan array binding signal (z-score)", "setting": "[8]", "result": 0.181}, {"measurement": "glycan array binding signal (z-score)", "setting": "[9]", "result": -0.858}, {"measurement": "glycan array binding signal (z-score)", "setting": "[10]", "result": 0.481}, {"measurement": "glycan array binding signal (z-score)", "setting": "[11]", "result": -0.717}, {"measurement": "glycan array binding signal (z-score)", "setting": "[12]", "result": 0.203}, {"measurement": "glycan array binding signal (z-score)", "setting": "[13]", "result": -0.542}, {"measurement": "glycan array binding signal (z-score)", "setting": "[14]", "result": -0.827}, {"measurement": "glycan array binding signal (z-score)", "setting": "[15]", "result": -0.608}, {"measurement": "glycan array binding signal (z-score)", "setting": "[16]", "result": -0.713}, {"measurement": "glycan array binding signal (z-score)", "setting": "[17]", "result": 0.425}, {"measurement": "glycan array binding signal (z-score)", "setting": "[18]", "result": 0.697}, {"measurement": "glycan array binding signal (z-score)", "setting": "[19]", "result": -0.159}, {"measurement": "glycan array binding signal (z-score)", "setting": "[20]", "result": -0.831}, {"measurement": "glycan array binding signal (z-score)", "setting": "[21]", "result": 0.951}, {"measurement": "glycan array binding signal (z-score)", "setting": "[22]", "result": 0.115}, {"measurement": "glycan array binding signal (z-score)", "setting": "[23]", "result": -0.935}, {"measurement": "glycan array binding signal (z-score)", "setting": "[24]", "result": 2.5}, {"measurement": "glycan array binding signal (z-score)", "setting": "[25]", "result": 1.24}, {"measurement": "glycan array binding signal (z-score)", "setting": "[26]", "result": 0.358}, {"measurement": "glycan array binding signal (z-score)", "setting": "[27]", "result": 0.508}, {"measurement": "glycan array binding signal (z-score)", "setting": "[28]", "result": 1.04}, {"measurement": "glycan array binding signal (z-score)", "setting": "[29]", "result": -1.18}, {"measurement": "glycan array binding signal (z-score)", "setting": "[30]", "result": 4.99}]}
